# Experimental data published in US20020010207A1, “Tropane analogs and methods for inhibition of monoamine transport” (priority 2000, published 2002).
# Amino acid sequences for entries named in this document (tags omitted).
# UniProt Q9GJT6, whole entry: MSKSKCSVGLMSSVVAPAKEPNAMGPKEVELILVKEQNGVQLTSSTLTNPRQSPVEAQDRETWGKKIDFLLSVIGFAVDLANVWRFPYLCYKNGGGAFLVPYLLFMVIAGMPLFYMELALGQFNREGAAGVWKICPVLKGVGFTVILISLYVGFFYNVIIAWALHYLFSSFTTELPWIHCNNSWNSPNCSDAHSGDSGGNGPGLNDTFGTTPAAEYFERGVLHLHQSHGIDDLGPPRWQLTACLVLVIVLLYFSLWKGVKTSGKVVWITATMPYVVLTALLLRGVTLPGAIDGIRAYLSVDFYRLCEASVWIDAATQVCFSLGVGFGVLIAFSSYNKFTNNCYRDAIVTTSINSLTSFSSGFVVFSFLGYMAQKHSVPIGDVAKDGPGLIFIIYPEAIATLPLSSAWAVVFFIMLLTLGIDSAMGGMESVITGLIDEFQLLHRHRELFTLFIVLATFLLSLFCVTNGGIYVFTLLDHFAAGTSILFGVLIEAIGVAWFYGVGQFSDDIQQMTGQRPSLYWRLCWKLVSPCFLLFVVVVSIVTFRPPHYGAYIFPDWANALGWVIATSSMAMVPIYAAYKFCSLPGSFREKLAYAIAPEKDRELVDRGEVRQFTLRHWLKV
# Molecular target: dopamine transporter (DAT) (Macaca fascicularis, UniProt Q9GJT6)
# Experiment: Dopamine transporter assay: inhibition of 3H-WIN35,428 binding, caudate-putamen membranes
# Set-up: species or system cynomolgus monkey (Macaca fascicularis)
# Details: Table 1; ratio of SERT IC50 to DAT IC50; tested form: HCl
structure (smiles),measurement,value
COC(=O)[C@@H]1[C@H]2[C@H](O)C[C@@H](C[C@H]1c1ccc(Cl)c(Cl)c1)N2C (relative stereo),Selectivity DAT V. SERT,> 500 and 1450

# A number of entries come with more than one value. They are shown here; other results are not. The source may hold further records. Results that share an entry do not match, cause unknown; some may be repeats, others may stem from another dose, organism or construct than stated.
